These results are taken from publication PMC10051889.

Amino acid sequences for entries named in this document (tags omitted).
UniProt Q39026: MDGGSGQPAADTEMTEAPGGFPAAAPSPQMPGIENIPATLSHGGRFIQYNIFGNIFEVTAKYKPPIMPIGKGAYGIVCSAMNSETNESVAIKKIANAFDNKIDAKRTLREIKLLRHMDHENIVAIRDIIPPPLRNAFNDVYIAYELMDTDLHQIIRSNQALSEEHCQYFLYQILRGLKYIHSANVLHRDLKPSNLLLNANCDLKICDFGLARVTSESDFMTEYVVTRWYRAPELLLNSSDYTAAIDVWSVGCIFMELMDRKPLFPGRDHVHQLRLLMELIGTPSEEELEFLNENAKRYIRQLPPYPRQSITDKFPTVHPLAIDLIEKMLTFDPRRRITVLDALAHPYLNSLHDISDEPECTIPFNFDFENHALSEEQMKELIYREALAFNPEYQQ

These are yes or no findings as the source states them, for the method shown. For some of these results: Binding seen in cells or lysates may run through a third protein. Some binding calls cover weakened binding; strength is not graded here. For some of these results: Where a sequence is shown, tags or fusion partners need not be part of it.

The target in assay [1] is T1, MAP kinase3 (MPK3), pGBKT7-MPK3 bait (Arabidopsis thaliana) (UniProt Q39023).
T1 sequence: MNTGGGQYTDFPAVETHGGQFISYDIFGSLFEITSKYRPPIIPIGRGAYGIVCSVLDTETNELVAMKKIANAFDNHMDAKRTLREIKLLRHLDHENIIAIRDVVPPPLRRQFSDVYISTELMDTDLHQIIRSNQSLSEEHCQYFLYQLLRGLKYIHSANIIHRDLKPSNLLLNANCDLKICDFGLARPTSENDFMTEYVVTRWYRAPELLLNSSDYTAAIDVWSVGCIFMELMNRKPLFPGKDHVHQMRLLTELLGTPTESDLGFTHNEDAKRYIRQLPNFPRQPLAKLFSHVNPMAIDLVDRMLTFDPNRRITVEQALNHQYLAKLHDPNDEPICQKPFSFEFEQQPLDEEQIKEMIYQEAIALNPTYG
In words: two-hybrid; MPK3 or MPK6 in pGBKT7 as bait, CRK41 in pGADT7 as prey; co-transformed into yeast AH109, grown on SD-Trp-Leu, then SD-Trp-Leu-His-Ade plates.

Assay [2] has as its target MPK6, pGBKT7-MPK6 bait (Arabidopsis thaliana) (UniProt Q39026). The description is as above.
Assay [3] concerns the target MPK6-nLUC (Arabidopsis thaliana) (UniProt Q39026). In words: split reporter; luciferase complementation imaging (LCI); nLUC fusions of MPK3 or MPK6 and CRK41-cLUC transiently expressed in leaves of 5-week-old N. benthamiana by Agrobacterium GV3101, leaves collected after 2-3 days.
Assay [4] concerns the target T2, MPK3-nLUC (Arabidopsis thaliana) (UniProt Q39023).
T2 sequence: T1 sequence
Described as above.

B1: CRK41 (cysteine-rich receptor-like kinase 41), pGADT7-CRK41 prey (receptor, UniProt O23081 1-665)
chain: MTSSCSLSRPQHLFFFFFLFVPFLSLGQQISVDINSAIWEFPSNPLCLSQQSNFAKSSQFSKNLDSLVSSIPSLKSNTYNFYSLSVGSISDQERVEAIGICNRVVNRVDCLNCIAQAAVNLTTMYCPQHRGAYVRATKCMFRYSDKPIFGKLETSPVLEAPNPSNATGDRNEFIRLQSELLNRLRSMAASGGSKRKYAQGTDPGSPPYTTFFGAVQCTPDLSEKDCNDCLSYGFSNATKGRVGIRWFCPSCNFQIESDLRFFLLDSEYEPDPKPGNDKVKIIIATVCSVIGFAIIAVFLYFFMTRNRRTAKQRHEGKDLEELMIKDAQLLQLDFDTIRLATNDFSRDNQLGEGGFGAVYKGVLDYGEEIAVKRLSMKSGQGDNEFINEVSLVAKLQHRNLVRLLGFCLQGEERILIYEFFKNTSLDHYIFDSNRRMILDWETRYRIISGVARGLLYLHEDSRFKIVHRDMKASNVLLDDAMNPKIADFGMAKLFDTDQTSQTRFTSKVAGTYGYMAPEYAMSGEFSVKTDVFSFGVLVLEIIKGKKNNWSPEEDSSLFLLSYVWKSWREGEVLNIVDPSLVETIGVSDEIMKCIHIGLLCVQENAESRPTMASVVVMLNANSFTLPRPSQPAFYSGDGESLSRDKNQINHIASLNDVTITEFDAR
For B1, the results for the binding entry in assay [1] and in assay [2] were “binds” and “no binding”, respectively.

B2: CRK41-cLUC (receptor, UniProt O23081 28-665)
chain: QQISVDINSAIWEFPSNPLCLSQQSNFAKSSQFSKNLDSLVSSIPSLKSNTYNFYSLSVGSISDQERVEAIGICNRVVNRVDCLNCIAQAAVNLTTMYCPQHRGAYVRATKCMFRYSDKPIFGKLETSPVLEAPNPSNATGDRNEFIRLQSELLNRLRSMAASGGSKRKYAQGTDPGSPPYTTFFGAVQCTPDLSEKDCNDCLSYGFSNATKGRVGIRWFCPSCNFQIESDLRFFLLDSEYEPDPKPGNDKVKIIIATVCSVIGFAIIAVFLYFFMTRNRRTAKQRHEGKDLEELMIKDAQLLQLDFDTIRLATNDFSRDNQLGEGGFGAVYKGVLDYGEEIAVKRLSMKSGQGDNEFINEVSLVAKLQHRNLVRLLGFCLQGEERILIYEFFKNTSLDHYIFDSNRRMILDWETRYRIISGVARGLLYLHEDSRFKIVHRDMKASNVLLDDAMNPKIADFGMAKLFDTDQTSQTRFTSKVAGTYGYMAPEYAMSGEFSVKTDVFSFGVLVLEIIKGKKNNWSPEEDSSLFLLSYVWKSWREGEVLNIVDPSLVETIGVSDEIMKCIHIGLLCVQENAESRPTMASVVVMLNANSFTLPRPSQPAFYSGDGESLSRDKNQINHIASLNDVTITEFDAR
Consider B2, for which the figures for the binding result in assay [3] and in assay [4] were “no binding” and “binds”, respectively.
